Test system: recombinant 6xHis-tag HTRA2 and its protein interaction partners in homogenized porcine retina
Test: Co-immunoprecipitation (Co-IP) of HTRA2 protein interaction partners, quantitative LC-MS/MS (iBAQ, volcano plot vs CTRL beads)
Parameters: species or system house swine (Sus scrofa)
Conditions: 5 mg porcine retina homogenate, 2 µg HTRA2 + 10 µg compound, n = 3, p < 0.01; log2 fold change > 1.5 vs CTRL; HTRA2 alone 31
Method: The retina extraction and homogenization were performed as already described in previous publications. The use of animal by-products of house swine for scientific research purposes was approved by the Kreisverwaltung Mainz-Bingen in Germany (Identification Code: DE 07 315 0006 21, approved on 13 January 2014). In brief, retinal tissues were extracted from freshly removed porcine eye bulbs (house swine, Sus scrofa domestica Linnaeus, n = 30) provided by the local slaughterhouses (Landmetzgerei Harth, Stadecken-Elsheim, Germany). […] Afterwards, the samples were pooled and the protein concentration was determined using a Pierce Bicinchoninic Acid (BCA) Protein Assay Kit (Thermo Fisher Scientific, Rockford, IL, USA) according to the manufacturer’s protocol, which provided 5 mg aliquots for further analysis.
The recombinant protein HTRA2 with a C-terminal 6xHis-tag motif (Novoprotein Scientific INC., Summit, NJ, USA) and 40 μL HisPurTM Ni-NTA magnetic beads (Thermo Fisher Scientific, Rockford, IL, USA) were spiked into 5 mg homogenized porcine retina. […] The protein concentration of each eluate fraction was determined as described above. […]

Row | Compound | Number of significant protein interaction partners of HTRA2
1 | ASGYTFTNYGLSWVR [CDR, synthetic peptide encoding a complementary-determining region 1 (CDR1) of polyclonal antibody molecules] | 23
2 | O=C1C(=Cc2ccc(-c3ccccc3[N+](=O)[O-])o2)C(=O)N(c2ccccc2)C(=S)N1c1ccccc1 [UCF-101, reference compound] | 13
